Data published in paper PMC3855713.
Results are given in words; binding and its absence hold for the method and conditions named. Some entries that bind do so weakly or less than the wild type.

Molecular target: Vaccinia virus uracil DNA glycosylase (D4) (Vaccinia virus) (UniProt P04303)
Experiment: crystal structure; D4 co-crystallised with uracil; hanging drop, 277 K; reservoir 10% PEG 8000, 0.1 M Tris-HCl pH 8.0, 10% DMSO; 12 subunits in the asymmetric unit; 2.03 Å; both purified

Vaccinia virus uracil DNA glycosylase (D4) (from UniProt P04303) (enzyme)
binding: binds
